Values of other authors as cited in patent US7601333B2, “Use of a tetrapeptide AcSDKP (SEQ ID No. 1) analog resistant to the angiotensin I converting enzyme for measuring glomerular filtration rate in a human or an animal and kit containing same” (Assistance Publique-Hopitaux de Paris, priority 2003, dated 2009).
At least one read-out could not be matched to a standard name with certainty. Residues, ends and D or L forms follow the SMILES beside them.

Settings: normal volunteers, infusion 1.12 μg/kg/min for 15 minutes, with captopril 50 mg 3 times/day for 3 days; cited from earlier work

CC(=O)N[C@@H](CO)C(=O)N[C@@H](CC(=O)O)C(=O)N[C@@H](CCCCN)C(=O)N1CCC[C@H]1C(=O)O [AcSDKP, N-acetyl-Ser-Asp-Lys-Pro] (Ac-SDKP-OH; C-terminus assumed)
urinary clearance of the exogenous peptide compared with GFR estimated by endogenous creatinine clearance: very close to the glomerular filtration rate
